Data: PubChem BioAssay AID248 (DTP/NCI, 2004)
The list does not hold the whole screen: it gathers tests that were run many times, whatever their T/C, doses with no T/C, and many T/C values between a quarter and a half above the control. Other doses and runs of a compound stand elsewhere. T/C is the treated group as % of the vehicle group. Some doses have a count of surviving animals in place of a T/C: the source holds a T/C of zero for them, seemingly a mark for toxic or unscored doses. Survivors were counted at the toxicity check, usually on the fifth day, unless a day is given; later deaths do not show. Schedule codes are those of the source, taken here to give the interval after Q, in days (D) or hours (H), and the number of doses after X. Some entries were tested several times; the results are listed from low to high. Where survival is the endpoint, this PubChem deposit counts one and a half times the control or more as active, and values a quarter to a half above the control carry no call in these data; other NCI protocols may use other cut-offs. Additions like (4×) give the number of equal values in this list. Some T/C values are followed by the survivors on the day toxicity was checked, most often the fifth; where none is given, no animal had died by that day.

System: L1210 leukemia ip in BDF1 mice, survival T/C
Assay: NCI In Vivo Anticancer Drug Screen. Data for tumor model L1210 Leukemia (intraperitoneal) in B6D2F1 (BDF1) mice
Conditions: T/C endpoint: mean survival time, higher T/C = longer survival
[1] = dose: 15.0 mg/kg/injection, schedule: Q01DX009 (ip), vehicle: water

Compound: COC(=O)[C@@H](O)[C@](O)(CCC(C)C)C(=O)O[C@@H]1C(OC)=C[C@]23CCCN2CCc2cc4c(cc2[C@H]13)OCO4
- T/C (dose: 1.87 mg/kg/injection, schedule: Q01DX009 (ip), vehicle: water): 128 % of control
- T/C (dose: 2.0 mg/kg/injection, schedule: Q03HX024 (ip), vehicle: saline): 130 % of control
- T/C (dose: 3.75 mg/kg/injection, schedule: Q01DX009 (ip), vehicle: water): 112, 116, 123, 124 % of control
- T/C (dose: 4.0 mg/kg/injection, schedule: Q01DX009 (ip), vehicle: saline): 126 % of control
- T/C (dose: 4.0 mg/kg/injection, schedule: Q01DX009 (sc), vehicle: saline, evaluated on day 30): 126 % of control
- T/C (dose: 4.0 mg/kg/injection, schedule: Q01DX009 (sc), vehicle: saline, evaluated on day 60): 125 % of control
- T/C (dose: 4.0 mg/kg/injection, schedule: Q03HX024 (ip), vehicle: saline): 125 % of control
- T/C (dose: 7.5 mg/kg/injection, schedule: Q01DX009 (ip), vehicle: water): 126 (3×) and 129 % of control
- T/C (dose: 8.0 mg/kg/injection, schedule: Q01DX009 (ip), vehicle: saline, evaluated on day 30): 135 % of control
- T/C (dose: 8.0 mg/kg/injection, schedule: Q01DX009 (ip), vehicle: saline, evaluated on day 60): 134 % of control
- T/C (dose: 8.0 mg/kg/injection, schedule: Q01DX009 (oral), vehicle: saline, evaluated on day 30): 127 % of control [9 of 10 alive]
- T/C (dose: 8.0 mg/kg/injection, schedule: Q01DX009 (oral), vehicle: saline, evaluated on day 60): 133 % of control
- T/C (dose: 8.0 mg/kg/injection, schedule: Q01DX009 (sc), vehicle: saline): 135 % of control
- survivor count (dose: 8.0 mg/kg/injection, schedule: Q03HX008 (ip), vehicle: saline): 0 of 10
- survivor count (dose: 8.0 mg/kg/injection, schedule: Q03HX016 (ip), vehicle: saline): 0 of 10
- survivor count (dose: 8.0 mg/kg/injection, schedule: Q03HX024 (ip), vehicle: saline): 1 of 10
- survivor count (dose: 8.0 mg/kg/injection, schedule: Q08DX002 (ip), vehicle: saline): 0 of 10
- T/C [1]: 94 [8 of 10 alive] and 109 % of control
- survivor count [1]: 3 of 6 and 6 of 10
- T/C (dose: 16.0 mg/kg/injection, schedule: Q01DX009 (oral), vehicle: saline, evaluated on day 30): 129 % of control [7 of 10 alive]
- T/C (dose: 16.0 mg/kg/injection, schedule: Q01DX009 (oral), vehicle: saline, evaluated on day 60): 126 % of control
- T/C (dose: 16.0 mg/kg/injection, schedule: Q01DX009 (sc), vehicle: saline): 146 % of control [9 of 10 alive]
- survivor count (dose: 16.0 mg/kg/injection, schedule: Q03HX008 (ip), vehicle: saline): 0 of 10
- survivor count (dose: 16.0 mg/kg/injection, schedule: Q03HX016 (ip), vehicle: saline): 0 of 10
- survivor count (dose: 16.0 mg/kg/injection, schedule: Q03HX024 (ip), vehicle: saline): 0 of 10
- survivor count (dose: 30.0 mg/kg/injection, schedule: Q01DX009 (ip), vehicle: water): 0 of 10
- survivor count (dose: 32.0 mg/kg/injection, schedule: Q01DX001 (iv), vehicle: saline): 4 of 10
- survivor count (dose: 32.0 mg/kg/injection, schedule: Q01DX001 (sc), vehicle: saline): 6 of 10
- survivor count (dose: 32.0 mg/kg/injection, schedule: Q01DX006 (iv), vehicle: saline): 0 of 10
- survivor count (dose: 32.0 mg/kg/injection, schedule: Q01DX009 (ip), vehicle: saline): 0 of 10 and 3 of 10
- survivor count (dose: 32.0 mg/kg/injection, schedule: Q01DX009 (oral), vehicle: saline): 3 of 10 and 4 of 10
- survivor count (dose: 32.0 mg/kg/injection, schedule: Q01DX009 (sc), vehicle: saline): 0 of 10 and 2 of 10
- survivor count (dose: 64.0 mg/kg/injection, schedule: Q01DX001 (ip), vehicle: saline): 0 of 10
- survivor count (dose: 64.0 mg/kg/injection, schedule: Q01DX001 (iv), vehicle: saline): 0 of 10
- survivor count (dose: 64.0 mg/kg/injection, schedule: Q01DX001 (oral), vehicle: saline): 0 of 10
- survivor count (dose: 64.0 mg/kg/injection, schedule: Q01DX001 (sc), vehicle: saline): 0 of 10
- survivor count (dose: 64.0 mg/kg/injection, schedule: Q01DX009 (oral), vehicle: saline): 0 of 10
- survivor count (dose: 64.0 mg/kg/injection, schedule: Q04DX003 (ip), vehicle: saline): 2 of 10
- survivor count (dose: 64.0 mg/kg/injection, schedule: Q08DX002 (ip), vehicle: saline): 2 of 10
- survivor count (dose: 128.0 mg/kg/injection, schedule: Q01DX001 (ip), vehicle: saline): 0 of 10
- survivor count (dose: 128.0 mg/kg/injection, schedule: Q01DX001 (iv), vehicle: saline): 0 of 10
- survivor count (dose: 128.0 mg/kg/injection, schedule: Q01DX001 (oral), vehicle: saline): 0 of 10
- survivor count (dose: 128.0 mg/kg/injection, schedule: Q01DX001 (sc), vehicle: saline): 0 of 10
- survivor count (dose: 128.0 mg/kg/injection, schedule: Q08DX002 (ip), vehicle: saline): 0 of 10
- survivor count (dose: 256.0 mg/kg/injection, schedule: Q01DX001 (oral), vehicle: saline): 0 of 10
